# Data as given in PubChem BioAssay AID686938 (Drosophila RNAi Screening Center, 2013).
# Screen: 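Knock-downs reducing store-operated calcium influx in Drosophila cells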 (primary screen)
# Cell system: Drosophila S2R+ cells
# Knock-down reagent: long dsRNA against Drosophila genes, about 0.25 µg dsRNA per well, roughly 10,000 cells
# Time to read-out: 5 days of knock-down before the calcium assay
# Treatment: thapsigargin (SERCA pump blocker) to empty calcium stores; entry signal taken 4 min after adding it
# Read-out: 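Per-well fluo-4 fluorescence in two replicates, unnormalised, measured in resting cells and 4 min after store depletion by the SERCA blocker thapsigargin; ratio of the two present in few wells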
# Scale: calcium entry signal: higher = stronger calcium signal after store depletion; resting calcium signal: higher = higher resting calcium signal
# Rule for the call: 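Called when the plate z-score of the entry-to-rest ratio, mean of duplicates, falls below −3; wells with low overall dye signal (Fmax z below −2) or more than five off-targets excluded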
# Calls: active = strongly reduced calcium entry; inactive = no strong reduction
# The screen tested about 23,000 reagents; shown is a random part of those that have a named target and a result. Over the whole deposit, 75 (0.33%) are marked active. 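Raw plate signals without normalisation; calls rest on plate z-scores that were not deposited; ratio present for only 364 wells.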 Names joined by + are all predicted targets of the reagent. The record does not give: the dose of the treatment.
Gene,amplicon,"calcium entry signal, replicate 1 (fluorescence units)","calcium entry signal, replicate 2 (fluorescence units)","resting calcium signal, replicate 1 (fluorescence units)","resting calcium signal, replicate 2 (fluorescence units)",call
CG1542 (GeneID 43691),DRSC15035,1.83e7,1.36e7,1.15e7,8.63e6,inactive
Gbs-70E (GeneID 39588),DRSC11055,5.15e7,6.34e7,2.25e7,2.67e7,inactive
tub (GeneID 40554),DRSC12389,4.05e7,7.54e7,1.92e7,3.26e7,inactive
tub (GeneID 40554),DRSC22800,2.94e7,4.22e7,1.46e7,1.95e7,inactive
CG8728 (GeneID 35748),DRSC07251,3.73e7,2.60e7,1.65e7,1.30e7,inactive
lost (GeneID 40559),DRSC12002,3.91e7,3.39e7,2.20e7,1.63e7,inactive
lost (GeneID 40559),DRSC12234,4.08e7,4.58e7,1.85e7,2.33e7,inactive
lost (GeneID 40559),DRSC21987,2.01e7,3.61e7,1.04e7,1.83e7,inactive
dod (GeneID 33111),DRSC20577,5.25e7,4.20e7,2.28e7,1.66e7,inactive
MRG15 (GeneID 41850),DRSC16731,4.15e7,5.63e7,1.97e7,2.57e7,inactive
CG15649 (GeneID 37371),DRSC04240,5.20e7,5.10e7,2.53e7,2.25e7,inactive
hpo (GeneID 37247),DRSC06065,3.46e7,2.97e7,1.63e7,1.64e7,inactive
CG3663 (GeneID 37944),DRSC04402,4.43e7,,2.15e7,,inactive
shn (GeneID 36171),DRSC05266,5.22e7,5.12e7,2.54e7,2.29e7,inactive
shn (GeneID 36171),DRSC07681,2.38e7,2.59e7,1.07e7,1.22e7,inactive
CG31128 (GeneID 318601),DRSC13675,3.73e7,4.47e7,1.71e7,2.21e7,inactive
CG42788 (GeneID 41817),DRSC15330,3.16e7,4.66e7,1.62e7,6.72e7,inactive
CG42788 (GeneID 41817),DRSC16139,3.36e7,4.50e7,1.68e7,5.99e7,inactive
CG42788 (GeneID 41817),DRSC16152,3.32e7,5.03e7,1.67e7,6.01e7,inactive
Nubp1 (GeneID 35000),DRSC02639,4.37e7,,2.32e7,,inactive
CG12826 (GeneID 35710),DRSC06175,4.86e7,1.70e7,2.36e7,8.96e6,inactive
Rtf1 (GeneID 37554),DRSC04085,1.86e7,,1.01e7,,inactive
Schip1 (GeneID 34393),DRSC02851,4.34e7,6.63e7,1.90e7,2.58e7,inactive
alphaTub84D (GeneID 40904),DRSC12623,1.80e7,2.57e7,1.25e7,1.76e7,active
Cyp9h1 (GeneID 36412),DRSC07391,3.15e7,3.54e7,1.69e7,1.71e7,inactive
Coq4 + frc,DRSC10381,6.68e7,7.73e7,2.81e7,3.18e7,inactive
Coq4 + frc,DRSC10382,3.78e7,3.80e7,1.57e7,1.54e7,inactive
Ack (GeneID 38489),DRSC08135,4.60e7,5.44e7,2.64e7,2.63e7,inactive
CG14829 (GeneID 38792),DRSC10199,2.31e7,6.83e7,1.02e7,2.46e7,inactive
CG14000 (GeneID 33820),DRSC02332,3.35e7,3.15e7,1.63e7,1.56e7,inactive
Arl6IP1 (GeneID 42027),DRSC14231,2.29e7,5.35e7,1.26e7,6.35e7,inactive
Prx4 (GeneID 53577),DRSC08668,3.98e7,3.48e7,2.03e7,1.68e7,inactive
PolZ2 (GeneID 40677),DRSC12325,4.86e7,3.60e7,2.32e7,1.79e7,inactive
Tlk (GeneID 318206),DRSC17281,3.36e7,3.33e7,1.74e7,1.35e7,inactive
Tlk (GeneID 318206),DRSC17731,2.15e7,2.42e7,1.03e7,1.08e7,inactive
Tlk (GeneID 318206),DRSC17835,1.37e7,2.39e7,8.86e6,1.18e7,inactive
Tlk (GeneID 318206),DRSC22924,3.31e7,3.75e7,1.66e7,1.78e7,inactive
Tlk (GeneID 318206),DRSC22926,2.39e7,2.11e7,1.26e7,1.05e7,inactive
Tlk (GeneID 318206),DRSC22938,4.13e7,3.69e7,2.05e7,1.55e7,inactive
Tlk (GeneID 318206),DRSC23163,3.59e7,2.00e7,2.07e7,1.01e7,inactive
CG12093 (GeneID 38343),DRSC08252,4.14e7,3.33e7,2.04e7,1.75e7,inactive
CG31296 (GeneID 318668),DRSC13092,3.92e7,2.99e7,2.11e7,1.54e7,inactive
Idgf1 (GeneID 34978),DRSC03349,3.72e7,,2.04e7,,inactive
Opbp (GeneID 246618),DRSC04966,3.84e7,4.05e7,2.07e7,1.92e7,inactive
Ciz1 (GeneID 39161),DRSC09675,1.81e7,2.97e7,1.15e7,1.52e7,inactive
CG34135 + CG11768,DRSC12702,4.17e7,5.51e7,1.91e7,2.52e7,inactive
mRpL3 (GeneID 32523),DRSC20100,3.93e7,3.73e7,1.90e7,1.76e7,inactive
msl-1 (GeneID 35121),DRSC03573,2.32e7,3.05e7,1.24e7,1.53e7,inactive
Andorra (GeneID 32798),DRSC19475,4.16e7,3.79e7,2.14e7,1.72e7,inactive
CG12560 (GeneID 34092),DRSC02174,2.72e7,4.38e7,1.23e7,1.67e7,inactive
Amy-p (GeneID 47764),DRSC06786,4.75e7,4.36e7,1.97e7,2.07e7,inactive
PICK1 (GeneID 34677),DRSC01268,3.98e7,4.21e7,2.00e7,1.76e7,inactive
PICK1 (GeneID 34677),DRSC02936,4.50e7,2.68e7,1.90e7,1.42e7,inactive
sqh (GeneID 31554),DRSC18837,3.25e7,3.13e7,1.68e7,1.66e7,inactive
Taz (GeneID 36405),DRSC07704,3.46e7,4.22e7,1.73e7,1.89e7,inactive
Taz (GeneID 36405),DRSC22625,4.27e7,3.25e7,2.30e7,1.57e7,inactive
bumpel (GeneID 41368),DRSC16100,3.21e7,3.40e7,1.58e7,1.73e7,inactive
CG14313 (GeneID 42176),DRSC14792,3.42e7,4.33e7,7.78e7,1.83e7,inactive

Single entries from the entries so far.
CG3663 (GeneID 37944) [DRSC04402], call: inactive
For “resting calcium signal, replicate 2 (fluorescence units)”, CG12826 (GeneID 35710) [DRSC06175] has 8.96e6
Amy-p (GeneID 47764) [DRSC06786], resting calcium signal, replicate 2 (fluorescence units) = 2.07e7
Value for CG12093 (GeneID 38343) [DRSC08252] under “resting calcium signal, replicate 1 (fluorescence units)”: 2.04e7
Result for Taz (GeneID 36405) [DRSC07704] in “resting calcium signal, replicate 2 (fluorescence units)”: 1.89e7
